PubChem BioAssay AID1259291, Sanger Institute, 2017
Purpose: 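Search for gene knock-downs that act synergistically alongside anchor drugs to kill cells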 (primary screen). System: HT29 human colorectal cancer cells. Reagents: siRNA pool against human genes. Treatment: anchor drugs added a day after transfection: BYL719 at 1 µM, cetuximab at 5 µg/ml or trametinib at 10 nM, or DMSO vehicle alone. Measured: 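Cell viability as a fraction of the non-targeting pool, mean of replicates, robust z-scores from control wells; synergy scores for BYL719 (1 µM), cetuximab (5 µg/ml), trametinib (10 nM)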. Direction: robust z-score, knock-down alone and viability, knock-down alone: higher = more viable cells; synergy score with BYL719 and synergy score with cetuximab and synergy score with trametinib: higher = stronger synergistic killing with drug. Call rule: 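a knock-down alone scoring under -3 on robust z-score is called essential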. Calls: active = essential (knock-down alone); inactive = no change alone.
This is a random part of 794 reagents tested. 15 of all reagents (1.9%) count as active. 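Calls rest on knock-down alone; drug synergy scores do not affect them; drugs added a day post-transfection, DMSO vehicle as comparison.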 Viability is capped at 1. Not given: the amount of reagent, the time to read-out.

no.	Gene	robust z-score, knock-down alone	viability, knock-down alone (fraction of control)	synergy score with BYL719	synergy score with cetuximab	synergy score with trametinib	call
1	AKT3	0.552	1	0.0788	0	0.0239	inactive
2	GRK4	-0.146	0.957	0.000404	-0.0324	-0.0191	inactive
3	NRAS	0.552	1	0.0974	0.205	-0.0187	inactive
4	CDK14	-1.61	0.866	-0.00421	-0.000269	-0.103	inactive
5	TP53RK	-2.19	0.83	-0.128	-0.0602	-0.0618	inactive
6	STK17B	0.552	1	-0.00617	0.0263	0.171	inactive
7	RNASEL	0.552	1	0.033	0.0551	-0.0555	inactive
8	KCNH2	0.552	1	-0.0305	0	0.0392	inactive
9	EPHB1	0.552	1	0.024	0.0292	-0.041	inactive
10	TNK2	-0.0298	0.964	0.106	0.00822	-0.0253	inactive
11	GUCY2C	0.552	1	-0.135	0	-0.0683	inactive
12	MAP4K4	-1.06	0.9	-0.0405	-0.1	-0.0638	inactive
13	MYLK4	0.552	1	0.0694	0.0688	0.0811	inactive
14	UHMK1	0.021	0.967	-0.0885	0.0217	-0.0494	inactive
15	MVK	0.552	1	-0.0685	0.125	0.055	inactive
16	TLK1	0.231	0.98	0.207	0.0711	0.178	inactive
17	PKN1	0.552	1	-0.0077	0	-0.0662	inactive
18	IP6K3	0.552	1	0.068	0.0129	0.132	inactive
19	GSK3A	0.0287	0.968	-0.165	0.0176	0.0121	inactive
20	MAP3K8	-1.34	0.883	-0.0413	-0.0876	0.019	inactive
21	PMVK	0.0274	0.967	-0.0522	0.0387	0.0713	inactive
22	MPP3	0.552	1	0.0699	0.123	0.24	inactive
23	TTBK2	0.552	1	0.0969	0.0139	0.102	inactive
24	STK11	-1.39	0.88	-0.0916	-0.12	0.0536	inactive
25	PI4K2B	0.552	1	-0.134	0	-0.0145	inactive
26	DGKI	0.552	1	0.138	0.0797	0.0675	inactive
27	LIMK2	0.552	1	0.0486	0	0.221	inactive
28	STK38L	0.552	1	-0.0609	0.15	0.0143	inactive
29	TBX3	-0.852	0.913	-0.205	-0.0872	-0.0752	inactive
30	DGKD	0.277	0.983	-0.0665	-0.0171	0.025	inactive
31	CSF1R	0.552	1	-0.0195	0.0485	-0.192	inactive
32	PI4K2A	-0.472	0.936	-0.211	0.0329	0.000395	inactive
33	ADCK2	0.0635	0.97	-0.0503	0.0933	0.146	inactive
34	MAPK6	-0.602	0.928	0.0625	0.00617	-0.0451	inactive

A stretch from the list above, for reference:
no.	Gene	robust z-score, knock-down alone	viability, knock-down alone (fraction of control)	synergy score with BYL719	synergy score with cetuximab	synergy score with trametinib	call
24	STK11	-1.39	0.88	-0.0916	-0.12	0.0536	inactive
25	PI4K2B	0.552	1	-0.134	0	-0.0145	inactive
26	DGKI	0.552	1	0.138	0.0797	0.0675	inactive
27	LIMK2	0.552	1	0.0486	0	0.221	inactive
28	STK38L	0.552	1	-0.0609	0.15	0.0143	inactive
